# Test results taken from the supplement of paper PMC4635364.
# Where a name gives a salt, the structure may show the parent alone. Some of the results follow. Repeats in this data set agree poorly, so a single value says little.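 ReNCell VM, a human fetal ventral-midbrain neural progenitor line, was differentiated without mitogens. Blinded raters scored images stained for doublecortin (early neurons) or tyrosine hydroxylase (dopaminergic neurons) against untreated wells (0 = no change). Scores were averaged across repeats and both raters, and compounds averaging 2 or more were selected as hits for retesting.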
# Key:
# ReNCell VM [1] = experiment: neuronal differentiation score (DCX+ cell fraction vs untreated, manual image score) (score (-3 to 3)); higher = more neuronal differentiation; conditions: 2 uM, 2 weeks
# ReNCell VM [2] = experiment: dopaminergic neuron differentiation score (TH+ cell fraction vs untreated, manual image score) (score (0 to 3)); higher = more TH+ dopaminergic neuron differentiation; conditions: 2 uM, 4 weeks, BDNF 10 ng/ml + GDNF 10 ng/ml
smiles,measurement,setting,value
CC1(C)C(=O)C=C[C@@]2(C)C1=C(O)C(=O)[C@]1(C)[C@@H]2CC[C@@]2(C)[C@H](c3ccoc3)C[C@H]3O[C@]321,neuronal differentiation score,ReNCell VM [1]; library: Spectrum,inactive: 0
same,dopaminergic neuron differentiation score,ReNCell VM [2]; library: Spectrum,inactive: 0
C[C@]12CC[C@H]3[C@@H](CCC4=CC(=O)CC[C@@]43C)[C@@H]1CC[C@H]2O,neuronal differentiation score,ReNCell VM [1]; library: Spectrum,inactive: 0
same,dopaminergic neuron differentiation score,ReNCell VM [2]; library: Spectrum,inactive: 0
Oc1ccc2c3c1O[C@H]1c4c(c5ccccc5n4Cc4ccccc4)C[C@@]4(O)C(C2)N(CC2CC2)CC[C@]314 [N-Benzylnaltrindole hydrochloride],neuronal differentiation score,ReNCell VM [1]; library: Tocriscreen,inactive: 0
same,dopaminergic neuron differentiation score,ReNCell VM [2]; library: Tocriscreen,inactive: 1
CC[C@H]1CN2CC[C@H]1C[C@H]2[C@H](O)c1ccnc2ccc(OC)cc12,neuronal differentiation score,ReNCell VM [1]; library: Spectrum,inactive: 0
same,dopaminergic neuron differentiation score,ReNCell VM [2]; library: Spectrum,inactive: 0
COc1cccc2c1cc([N+](=O)[O-])c1c(C(=O)O)cc3c(c12)OCO3 [Aristolochic Acid],neuronal differentiation score,ReNCell VM [1]; library: Phytochemical,inactive: 0
same,dopaminergic neuron differentiation score,ReNCell VM [2]; library: Phytochemical,inactive: 0
CO[C@]12C[C@@H](COC(=O)c3cncc(Br)c3)CN(C)[C@@H]1Cc1cn(C)c3cccc2c13,neuronal differentiation score,ReNCell VM [1]; library: Spectrum,inactive: 0
same,dopaminergic neuron differentiation score,ReNCell VM [2]; library: Spectrum,inactive: 0
Oc1cc(Cl)ccc1Oc1ccc(Cl)cc1Cl,neuronal differentiation score,ReNCell VM [1]; library: Spectrum,inactive: 1
same,dopaminergic neuron differentiation score,ReNCell VM [2]; library: Spectrum,inactive: 0
CS(=N)(=O)CC[C@H](N)C(=O)O (some centres not stated),neuronal differentiation score,ReNCell VM [1]; library: Spectrum,inactive: 0
same,dopaminergic neuron differentiation score,ReNCell VM [2]; library: Spectrum,inactive: 0
"NCC(O)c1ccc(O)cc1 (racemic) [(+,-)-Octopamine hydrochloride]",neuronal differentiation score,ReNCell VM [1]; library: Prestwick,inactive: 0
same,dopaminergic neuron differentiation score,ReNCell VM [2]; library: Prestwick,inactive: 0
CC[C@H]1CN2CC[C@H]1C[C@H]2[C@H](O)c1ccnc2ccc(OC)cc12 [Hydroquinine hydrobromide hydrate],neuronal differentiation score,ReNCell VM [1]; library: Phytochemical,inactive: 0
same,dopaminergic neuron differentiation score,ReNCell VM [2]; library: Phytochemical,inactive: 0
Nc1ccc([As](=O)(O)O)cc1,neuronal differentiation score,ReNCell VM [1]; library: Spectrum,inactive: 1
same,dopaminergic neuron differentiation score,ReNCell VM [2]; library: Spectrum,inactive: 0
C[C@@H]1NCCc2cc(O)c(O)cc21 [Salsolinol hydrobromide],neuronal differentiation score,ReNCell VM [1]; library: Phytochemical,inactive: 0
same,dopaminergic neuron differentiation score,ReNCell VM [2]; library: Phytochemical,inactive: 0
C[N+]1(C)[C@@H]2CC[C@H]1C[C@@H](OC(=O)C(CO)c1ccccc1)C2 (some centres not stated) [Atropine methyl bromide],neuronal differentiation score,ReNCell VM [1]; library: LOPAC,inactive: 0
same,dopaminergic neuron differentiation score,ReNCell VM [2]; library: LOPAC,inactive: 0
CN(C)C(=O)Oc1ccc[n+](C)c1 [Pyridostigmine iodide],neuronal differentiation score,ReNCell VM [1]; library: Prestwick,inactive: 0
same,dopaminergic neuron differentiation score,ReNCell VM [2]; library: Prestwick,inactive: 0
CN1CCc2cc3c(c4c2C1Cc1ccccc1-4)OCO3 (configuration not stated) [roemerine],neuronal differentiation score,ReNCell VM [1]; library: Natural,inactive: 0
same,dopaminergic neuron differentiation score,ReNCell VM [2]; library: Natural,inactive: 0
CC(=O)O[C@H]1CC[C@@]2(C)C(=CC[C@@H]3[C@@H]2CC[C@]2(C)C(=O)CC[C@@H]32)C1 [Dehydroisoandosterone 3-acetate],neuronal differentiation score,ReNCell VM [1]; library: Prestwick,inactive: 0
same,dopaminergic neuron differentiation score,ReNCell VM [2]; library: Prestwick,inactive: 0
CCS(=O)(=O)Nc1cccc(C(=C2CCCCC2)c2cnc[nH]2)c1,neuronal differentiation score,ReNCell VM [1]; library: LOPAC,inactive: 0
same,dopaminergic neuron differentiation score,ReNCell VM [2]; library: LOPAC,active: 2
N[C@H](CCCCCP(=O)(O)O)C(=O)O [D(-)-2-Amino-7-phosphonoheptanoic acid],neuronal differentiation score,ReNCell VM [1]; library: LOPAC,inactive: 0
same,dopaminergic neuron differentiation score,ReNCell VM [2]; library: LOPAC,inactive: 0
NC(=O)c1ccc(OCC(O)CN2CC=C(c3ccc(F)cc3)CC2)cc1 (configuration not stated),neuronal differentiation score,ReNCell VM [1]; library: LOPAC,inactive: 0
same,dopaminergic neuron differentiation score,ReNCell VM [2]; library: LOPAC,inactive: 0
O=C(O)c1cc[c]([Hg][Cl])cc1 [4-Chloromercuribenzoic acid],neuronal differentiation score,ReNCell VM [1]; library: LOPAC,inactive: 0
same,dopaminergic neuron differentiation score,ReNCell VM [2]; library: LOPAC,inactive: 0
CC(=O)Oc1c2c(c(CC=C(C)C)c3c1C(=O)C1=C[C@@H]4CC5C(C)(C)OC(C/C=C(\C)C(=O)O)(C4=O)[C@@]15O3)OC(C)(CCC=C(C)C)C=C2 (some centres not stated),neuronal differentiation score,ReNCell VM [1]; library: Spectrum,inactive: 0
same,dopaminergic neuron differentiation score,ReNCell VM [2]; library: Spectrum,inactive: 0
CN(C(=O)Cc1ccccc1)C(CN1CCCC1)c1ccccc1 (configuration not stated) [N-MPPP Hydrochloride],neuronal differentiation score,ReNCell VM [1]; library: Tocriscreen,inactive: 1
same,dopaminergic neuron differentiation score,ReNCell VM [2]; library: Tocriscreen,inactive: 1
Cc1ncc(C[n+]2csc(CCO)c2C)c(=O)[nH]1,neuronal differentiation score,ReNCell VM [1]; library: Spectrum,inactive: 0
same,dopaminergic neuron differentiation score,ReNCell VM [2]; library: Spectrum,inactive: 0
C#CCN[C@H](C)Cc1ccccc1 [R-(-)-Desmethyldeprenyl hydrochloride],neuronal differentiation score,ReNCell VM [1]; library: LOPAC,inactive: 0
same,dopaminergic neuron differentiation score,ReNCell VM [2]; library: LOPAC,inactive: 0
O=c1ccc2ccc3occc3c2o1 [Angelicin],neuronal differentiation score,ReNCell VM [1]; library: Phytochemical,inactive: 0
same,dopaminergic neuron differentiation score,ReNCell VM [2]; library: Phytochemical,inactive: 0
Oc1cccc2cccnc12,neuronal differentiation score,ReNCell VM [1]; library: Spectrum,inactive: 0
same,dopaminergic neuron differentiation score,ReNCell VM [2]; library: Spectrum,inactive: 0
"CN1CCc2cc3c(cc2C1C1OC(=O)c2c1ccc1c2OCO1)OCO3 (single isomer, unassigned; (+)) [(+)-Bicuculline]",neuronal differentiation score,ReNCell VM [1]; library: Tocriscreen,inactive: 1
same,dopaminergic neuron differentiation score,ReNCell VM [2]; library: Tocriscreen,inactive: 0
CC(C)=CCCC1(C)C=Cc2c(O)c3c(c(CC=C(C)C)c2O1)OC12C(=CC4CC1C(C)(C)OC2(C/C=C(/C)C(=O)O)C4O)C3=O (configuration not stated),neuronal differentiation score,ReNCell VM [1]; library: Spectrum,inactive: 0
same,dopaminergic neuron differentiation score,ReNCell VM [2]; library: Spectrum,inactive: 0
COc1cc2c3cc1Oc1cc(ccc1O)C[C@@H]1c4c(cc(OC)c(O)c4Oc4cccc(c4)C[C@@H]3N(C)CC2)CC[N+]1(C)C [Tubocurarine chloride pentahydrate (+)],neuronal differentiation score,ReNCell VM [1]; library: Phytochemical,inactive: 0
same,dopaminergic neuron differentiation score,ReNCell VM [2]; library: Phytochemical,inactive: 0
Cl[C@H]1[C@H](Cl)[C@@H](Cl)[C@@H](Cl)[C@H](Cl)[C@H]1Cl,neuronal differentiation score,ReNCell VM [1]; library: Spectrum,inactive: 0
same,dopaminergic neuron differentiation score,ReNCell VM [2]; library: Spectrum,inactive: 0
Ic1cncc(OC[C@@H]2CCN2)c1,neuronal differentiation score,ReNCell VM [1]; library: Tocriscreen,inactive: 0
same,dopaminergic neuron differentiation score,ReNCell VM [2]; library: Tocriscreen,inactive: 0

# Given with bars between the fields: part of the list above
smiles | measurement | setting | value
CC1(C)C(=O)C=C[C@@]2(C)C1=C(O)C(=O)[C@]1(C)[C@@H]2CC[C@@]2(C)[C@H](c3ccoc3)C[C@H]3O[C@]321 | neuronal differentiation score | ReNCell VM [1]; library: Spectrum | inactive: 0
CO[C@]12C[C@@H](COC(=O)c3cncc(Br)c3)CN(C)[C@@H]1Cc1cn(C)c3cccc2c13 | dopaminergic neuron differentiation score | ReNCell VM [2]; library: Spectrum | inactive: 0
CN(C)C(=O)Oc1ccc[n+](C)c1 [Pyridostigmine iodide] | neuronal differentiation score | ReNCell VM [1]; library: Prestwick | inactive: 0
O=C(O)c1cc[c]([Hg][Cl])cc1 [4-Chloromercuribenzoic acid] | neuronal differentiation score | ReNCell VM [1]; library: LOPAC | inactive: 0
Ic1cncc(OC[C@@H]2CCN2)c1 | dopaminergic neuron differentiation score | ReNCell VM [2]; library: Tocriscreen | inactive: 0
